# ± gives the standard deviation of the averaged measurements. Some of the results follow. These are raw signals, not scaled to a control.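 The test system is a mixed culture of neurons, microglia and astrocytes in which bacterial LPS triggers microglia-driven neuron loss, modelling inflammatory neurodegeneration. Each compound was compared with vehicle (DMSO) wells on the same plates, and the SYK inhibitor BAY61-3606 served as the reference neuroprotective control.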
# Legend:
# Conditions in all cases: 1 µM, treatment time 3 days
# [1] = system: rat primary cerebellar neuron-glia coculture; test: microglia count (IB4+) per image field (cells per field); higher = more microglia
# [2] = system: rat primary cerebellar neuron-glia coculture; test: median microglial FormFactor (circularity) per image (dimensionless (0-1)); higher = rounder, more ameboid microglia
# [3] = system: rat primary cerebellar neuron-glia coculture; test: necrotic cell count (DRAQ7+) per image field (cells per field); higher = more necrosis
# [4] = system: rat primary cerebellar neuron-glia coculture; test: live neuron count (NeuO+) per image field (cells per field); higher = more surviving neurons
Compound,microglia count ([1]; LPS 0 ng/mL),microglia count ([1]; LPS 100 ng/mL),median microglial FormFactor ([2]; LPS 0 ng/mL),median microglial FormFactor ([2]; LPS 100 ng/mL),necrotic cell count ([3]; LPS 0 ng/mL),necrotic cell count ([3]; LPS 100 ng/mL),live neuron count ([4]; LPS 0 ng/mL),live neuron count ([4]; LPS 100 ng/mL)
Cc1cc(O)c(-c2ccc([C@@H](C)CN(C)C)cc2)c2c1[nH]c(=O)c1sccc12,53.8 ± 60,31 ± 13,0.484 ± 0.092,0.426 ± 0.083,,,,
CC[C@@H]1[C@@H](C)[C@H](Nc2ccccc2)c2ccccc2N1C(=O)c1ccc(Br)cc1,173 ± 36,457 ± 92,0.522 ± 0.081,0.646 ± 0.068,,,,
Cc1nc2c([nH]1)-c1ccccc1N(C(=O)c1ccc(NC(=O)c3ccccc3-c3ccccc3)cc1)CC2,167 ± 41,450 ± 99,0.573 ± 0.072,0.632 ± 0.078,79 ± 38,949 ± 340,2620 ± 440,335 ± 280
O=C(c1ccc(-c2ccccc2)cc1)N1CCN(c2ccccn2)CC1,169 ± 46,459 ± 130,0.519 ± 0.094,0.639 ± 0.1,85.6 ± 27,948 ± 360,2540 ± 440,572 ± 660
Cc1ccc(S(N)(=O)=O)cc1,164 ± 48,438 ± 95,0.543 ± 0.13,0.636 ± 0.081,96.6 ± 46,924 ± 350,2680 ± 470,456 ± 530
Cc1nc(C#Cc2cccnc2)cs1,153 ± 32,418 ± 100,0.552 ± 0.064,0.656 ± 0.091,82.6 ± 31,931 ± 510,2680 ± 440,589 ± 850
COc1ccc([C@@H]2Sc3ccccc3N(CCN(C)C)C(=O)[C@@H]2OC(C)=O)cc1,160 ± 32,462 ± 67,0.589 ± 0.09,0.644 ± 0.059,80.5 ± 28,987 ± 380,2550 ± 490,443 ± 510
N#C[C@@H]1C[C@@H]2C[C@@H]2N1C(=O)[C@@H](N)C12CC3CC(CC(O)(C3)C1)C2,167 ± 48,549 ± 120,0.546 ± 0.091,0.562 ± 0.11,106 ± 29,493 ± 260,2590 ± 520,1060 ± 540
CN(C(=O)c1ccccc1)c1ccc(C(O)(C(F)(F)F)C(F)(F)F)cc1,233 ± 36,503 ± 92,0.518 ± 0.096,0.656 ± 0.079,71.1 ± 26,202 ± 160,2210 ± 700,1970 ± 500
CCOC(=O)C1=CCCCC1S(=O)(=O)Nc1ccc(F)cc1Cl (centres undefined),307 ± 510,759 ± 150,0.53 ± 0.054,0.362 ± 0.061,81.9 ± 40,44.2 ± 21,2450 ± 740,2330 ± 420
Clc1ccc(CNc2nc3ccccc3[nH]2)cc1Cl,192 ± 41,424 ± 82,0.472 ± 0.056,0.663 ± 0.082,,,,
CC[C@@H](C)Nc1cc(C(=O)NC2CC3CCC(C2)N3c2ccc(C(=O)C3CC3)cn2)c(C)cc1C(N)=O (some centres undefined),44.1 ± 56,81.8 ± 150,0.468 ± 0.079,0.494 ± 0.07,873 ± 490,1020 ± 480,2740 ± 680,2360 ± 800
CCOC(=O)[C@H](CCc1ccccc1)N[C@@H](C)C(=O)N1CCC[C@H]1C(=O)O,180 ± 43,452 ± 83,0.551 ± 0.12,0.638 ± 0.068,81.9 ± 29,772 ± 310,,
O=C(O)c1cc(-c2ccc(Cl)cc2)ncn1,181 ± 39,459 ± 100,0.554 ± 0.093,0.646 ± 0.063,88.1 ± 43,1040 ± 340,,
CCCN1CCN(c2ccc(C(=O)NC3(C(=O)NCC#N)CCCCC3)cc2)CC1,165 ± 35,432 ± 90,0.567 ± 0.1,0.673 ± 0.066,87.7 ± 39,1060 ± 300,,
Cc1nc(-c2ccccc2)sc1C(=O)Nc1ccc(S(N)(=O)=O)cc1,168 ± 34,392 ± 63,0.56 ± 0.051,0.672 ± 0.051,86.7 ± 18,1070 ± 400,,
c1ccc(-c2ccc(CSc3nnc(-c4ccc5c(c4)OCO5)o3)cc2)cc1,181 ± 72,454 ± 94,0.535 ± 0.1,0.657 ± 0.059,94.5 ± 38,969 ± 420,,
CCN1CCN(c2ccc(Nc3cc(N(C)C(=O)Nc4c(Cl)c(OC)cc(OC)c4Cl)ncn3)cc2)CC1,183 ± 96,429 ± 85,0.519 ± 0.086,0.68 ± 0.07,83 ± 30,793 ± 270,,
Cc1noc(-c2ccc(CSCCC(=O)O)cc2)c1NC(=O)OC(C)c1ccccc1Cl (centres undefined),162 ± 40,412 ± 80,0.535 ± 0.093,0.662 ± 0.094,133 ± 54,1160 ± 310,,
O=C(COc1ccc2ccccc2c1)N1CCN(C(=O)Cc2ccccc2)CC1,,,,,92.5 ± 46,827 ± 400,2650 ± 500,552 ± 690
Cc1ncc(Cl)cc1NCc1ccc(C(=O)N[C@@H](CC2CCCC2)C(=O)NC2CC2)s1,144 ± 28,398 ± 57,0.534 ± 0.037,0.699 ± 0.086,85.3 ± 26,909 ± 350,,
O=C(Nc1ccc2c(c1)N(S(=O)(=O)c1ccc(F)cc1)CCC2)c1c(F)cccc1Cl,192 ± 93,490 ± 180,0.535 ± 0.1,0.643 ± 0.1,82.1 ± 24,838 ± 410,,
CC1(C)CC[C@]2(C(=O)O)CC[C@]3(C)[C@H](C(=O)C=C4[C@@]5(C)C=C(C#N)C(=O)C(C)(C)[C@@H]5CC[C@]43C)[C@@H]2C1,123 ± 49,459 ± 74,0.635 ± 0.12,0.695 ± 0.045,87.7 ± 34,452 ± 200,,
CCCC[n+]1c(/C=C/c2ccc(N(C)C)cc2)sc2ccccc21,365 ± 72,311 ± 64,0.465 ± 0.061,0.624 ± 0.034,304 ± 170,1630 ± 320,,

# 2 entries drawn at random from those above:
Compound,microglia count ([1]; LPS 0 ng/mL),microglia count ([1]; LPS 100 ng/mL),median microglial FormFactor ([2]; LPS 0 ng/mL),median microglial FormFactor ([2]; LPS 100 ng/mL),necrotic cell count ([3]; LPS 0 ng/mL),necrotic cell count ([3]; LPS 100 ng/mL),live neuron count ([4]; LPS 0 ng/mL),live neuron count ([4]; LPS 100 ng/mL)
CC[C@@H](C)Nc1cc(C(=O)NC2CC3CCC(C2)N3c2ccc(C(=O)C3CC3)cn2)c(C)cc1C(N)=O (some centres undefined),44.1 ± 56,81.8 ± 150,0.468 ± 0.079,0.494 ± 0.07,873 ± 490,1020 ± 480,2740 ± 680,2360 ± 800
O=C(COc1ccc2ccccc2c1)N1CCN(C(=O)Cc2ccccc2)CC1,,,,,92.5 ± 46,827 ± 400,2650 ± 500,552 ± 690
